Assay results as given in article PMC9603599, “NAC1 Maintains Root Meristem Activity by Repressing the Transcription of E2Fa in Arabidopsis”.

Biological target: T1, GST-NAC1(1-199) (Arabidopsis thaliana) (UniProt Q84TE6)
T1 sequence (looked up): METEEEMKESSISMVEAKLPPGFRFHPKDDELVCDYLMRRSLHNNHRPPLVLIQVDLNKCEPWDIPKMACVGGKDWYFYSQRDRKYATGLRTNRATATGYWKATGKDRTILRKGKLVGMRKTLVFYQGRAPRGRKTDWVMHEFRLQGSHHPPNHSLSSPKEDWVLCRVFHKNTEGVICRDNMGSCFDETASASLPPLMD
Assay: competition with a labelled probe
Conditions: unlabeled, LightShift Chemiluminescent EMSA kit (Thermo 20148), manufacturer's instructions, pH and temperature not stated, recombinant protein, residues 1-199, protein details: GST (N-terminal, pGEX-4T-1)

Row | Sequence | binding result (against biotin P1) | binding result (against biotin P2)
1 | CGTGAAATGCCAGTGGTCTATGATCGGATTCTCTGTTTCCGTTCTCCTTCTTTTTTTGGGCCTTAAATCCGTTT (double strand) [unlabeled competitor P1 (E2Fa-COM-F1/R1)] | binds | –
2 | CGTGTAGAGTTGCGATTTGCAGAGAATTGTGATTCTACAATTGGAGGCAAGATGATGAATGTGTGAACTGATTAGCGTAA (double strand) [unlabeled competitor P2 (E2Fa-COM-F2/R2)] | – | binds

Construct, isoform or probe ends are uncertain for at least one entry. At least one verdict rests on a figure or table, not on a statement of the authors. Protein sequences can lack the tags named with them.
